{
  "source": "patent US9221985B2",
  "about": "“Solvent compositions” (TBF Environmental Technology, Inc., priority 2013, dated 2015)",
  "assay": "Hansen solubility parameters",
  "settings": "hildebrand",
  "description": "In some embodiments, a solvent composition according to the present disclosure includes an acetate ester, such as MA, EA, or TBAc, in combination with one or more additional reagents to increase dispersion and decrease hydrogen bonding and/or to decrease the polarity of the solvent composition.",
  "note": "The name of at least one read-out is uncertain.",
  "data": [
    {"substance": "xylene [Xylenes]", "values": [
      {"measurement": "δ (Hansen solubility parameter)", "value": 9.36, "unit": "cal^1/2 cm^−3/2"}
    ]}
  ]
}
